In PMC5814057, “Folic acid derived-P5779 mimetics regulate DAMP-mediated inflammation through disruption of HMGB1:TLR4:MD-2 axes” (PLoS ONE, 2018):
Results are given in words; binding and its absence hold for the method and conditions named. Some binding calls cover weakened binding; strength is not graded here.

The chains behind the UniProt entries cited, without tags or fusion partners.
UniProt P63159: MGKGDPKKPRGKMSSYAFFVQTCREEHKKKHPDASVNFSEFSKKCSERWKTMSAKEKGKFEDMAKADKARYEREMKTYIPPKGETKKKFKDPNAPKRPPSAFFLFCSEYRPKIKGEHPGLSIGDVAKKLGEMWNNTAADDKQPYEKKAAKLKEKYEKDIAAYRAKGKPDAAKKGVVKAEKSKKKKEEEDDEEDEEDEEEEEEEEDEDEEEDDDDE

Molecular target: Recombinant HMGB1 (High mobility group box 1), wild type, disulfide form (UniProt P63159)
Assay: SPR; inhibition assay: wild type HMGB1 immobilised on CM5 to 400 RU; MD-2 (0.5 uM) incubated 15 min with or without inhibitor, injected at 30 uL/min for 60 s; 1X PBS + 0.05% Tween 20; both purified

- binding: binds
B1: Recombinant human MD2 protein (R&D 1787-MD) (protein, UniProt Q9Y6Y9 19-160)
chain: QKQYWVCNSSDASISYTYCDKMQYPISINVNPCIELKRSKGLLHIFYIPRRDLKQLYFNLYITVNTMNLPKRKEVICRGSDDDYSFCRALKGETVNTTISFSFKGIKFSKGKYKCVVEAISGSPEEMLFCLEFVILHQPNSN
